# Reference: PubChem BioAssay AID504834 (National Center for Advancing Translational Sciences (NCATS), 2011)
# Among all 320,000 compounds or so, about 22,000 (6.9%) were called active. The inconclusive results got no clear call from the source; some entries with a clear call stand among them for comparison. The call rests on the fitted dose curve; in most records, active means well fitted inhibition curve with a large enough effect; inconclusive means small, poorly fitted or top-dose-only effect, or another doubt; inactive means no such curve, though single readings can be large or run the other way. Potencies of inconclusive entries are doubtful fits and often do not repeat.
# Assay: Primary qHTS for delayed death inhibitors of the malarial parasite plastid, 96 hour incubation
# Conditions: P. falciparum luciferase reporter growth; series mostly up to 28.7 µM
# Summary of the method: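 96 h incubation, 37 C, 5% CO2, of luciferase-reporter P. falciparum-infected RBCs (2% hematocrit, 0.05% parasitemia final) with test compounds; endpoint luminescence.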
# Potency means the concentration at half of the fitted maximal effect.
row,SMILES,Potency
1,COc1ccc(C(=O)OCC(=O)Nc2cc(C)on2)c(OC)c1OC,inactive
2,CC1CN(CCc2ccccc2)c2nc3c(c(=O)[nH]c(=O)n3C)n2C1 (stereo not drawn),"inconclusive: 6.57 µM [inhibitor, single point]"
3,CCCC1(C(=O)OC)NC(c2ccc(OC)c(OC)c2)C2C(=O)N(c3ccc4c(c3)OCO4)C(=O)C21 (stereo not drawn),inactive
4,CCn1nc(C(=O)OCC(=O)N(CCC#N)c2ccccc2)c2ccccc2c1=O,inactive
5,O=C(COc1ccc2c(c1)oc(=O)c1ccccc12)NCCCN1CCOCC1,"inconclusive: 11.7 µM [inhibitor, partial curve, poor fit]"
6,O=C(O)c1cc(S(=O)(=O)O)cc(Nc2c3ccccc3nc3ccccc23)c1O,"inconclusive: 4.15 µM [inhibitor, partial curve]"
7,C=CCn1c(=N)c(S(=O)(=O)c2ccc(C)c(C)c2)cc2c(=O)n3ccccc3nc21,"inconclusive: 11.7 µM [inhibitor, partial curve]"
8,CCOC(=O)c1cnc2ccccc2c1Nc1ccc2c(c1)OCCO2,inactive
9,O=C(Nc1cccc(NC(=O)c2cccnc2Cl)c1)c1ccco1,"inconclusive: 4.65 µM [inhibitor, partial curve]"
10,CCCCCCC(=O)N/N=C(\C)Cc1ccccc1,"inconclusive: 18.5 µM [inhibitor, single point]"
11,CCC(C)NC(=O)c1cn(CC)c2ccc(S(=O)(=O)N3CCCCC3)cc2c1=O (stereo not drawn),inactive
12,COc1ccc(S(=O)(=O)Nc2ccccc2C(=O)N2CCOCC2)cc1F,"inconclusive: 18.5 µM [inhibitor, partial curve, poor fit]"
13,Cc1nn(-c2ccccc2)c(Cl)c1/C=N/Nc1nnc(C)c(=O)[nH]1,"inconclusive: 5.22 µM [inhibitor, partial curve]"
14,O=C(NCc1ccco1)NC1CCCCC1,"inconclusive: 7.38 µM [inhibitor, single point]"
15,Cc1cccc(OCCC(=O)OCC(=O)Nc2c(C)nn(-c3ccccc3)c2C)c1,inactive
16,Nc1ccc(C(=O)OCc2nc3ccccc3[nH]2)cc1,"inconclusive: 0.657 µM [inhibitor, full curve, poor fit]"
17,Cc1c(C)c(C)c(S(=O)(=O)Nc2ccc3[nH]c(=O)[nH]c3c2)c(C)c1C,inactive
18,COc1cccc(C2CC(c3ccccc3)=NN2S(=O)(=O)c2ccccc2)c1OC (stereo not drawn),inactive
19,COc1ccc(CC(=O)NC(C)CCc2ccccc2)cc1OC (stereo not drawn),inactive
20,COc1ccc(CNC2CCCc3ccccc32)cc1OC (stereo not drawn),"inconclusive: 3.7 µM [inhibitor, single point]"
21,Cc1cc(C)nc(Sc2c(C)nn(-c3ccccc3)c2C)n1,"inconclusive: 18.5 µM [inhibitor, single point]"
22,CCCCn1nc(C(=O)Nc2ccc3c(c2)OCCO3)c2ccccc2c1=O,active: 6.57 µM
23,O=C(CCCCCN1C(=O)CCC1=O)Nc1ccc(Br)cc1F,active: 1.04 µM

row,SMILES,Potency
1,NCCNC(=O)c1c(NC(=O)c2ccccc2)sc2c1CCCC2,"inconclusive: 10.4 µM [inhibitor, single point]"
2,CCN1CCCC1CN(Cc1cc2cc(C)ccc2[nH]c1=O)C(=O)Nc1ccccc1OC (stereo not drawn),"inconclusive: 10.4 µM [inhibitor, partial curve, poor fit]"
3,O=C(NCCCN1CCN(Cc2ccccc2)CC1)C1CCN(S(=O)(=O)N2CCC3(CC2)OCCO3)CC1,"inconclusive: 16.5 µM [inhibitor, partial curve, poor fit]"
4,CCC1COC(c2cccn2Cc2ccc(Cl)cc2)=N1 (stereo not drawn),"inconclusive: 18.5 µM [inhibitor, single point]"
5,Cc1cc2nc3c(=O)[nH]c(=O)[nH]c3nc2c([N+](=O)[O-])c1N,inactive
6,CCC(C)(C)NC(=O)C(OC(=O)c1ccco1)c1ccccc1F (stereo not drawn),"inconclusive: 8.28 µM [inhibitor, partial curve, poor fit]"
7,COCCN1CC(=O)N2C(c3cccc(OC)c3)c3[nH]c4ccccc4c3C[C@H]2C1=O (stereo partly drawn),"inconclusive: 0.928 µM [inhibitor, full curve]"
8,COc1ccccc1NC(=S)NC(=O)C1CC1,inactive
9,O=C(COc1ccccc1Cl)Nc1ccc(C(=O)O)cc1NC(=O)COc1ccccc1Cl,active: 6.57 µM
10,S=C(NCCSCc1ccccc1Cl)Nc1ccccc1,"inconclusive: 18.5 µM [inhibitor, single point]"
11,COc1ccc(-c2oc3cc(O)c(OC)c(O)c3c(=O)c2OC)cc1,"inconclusive: 13.1 µM [inhibitor, single point]"
12,CC(C)(C)NC(=O)C(c1ccc(OCC(N)=O)cc1)N(C(=O)c1cccnc1)C1CC1 (stereo not drawn),"inconclusive: 18.5 µM [inhibitor, single point]"
13,COc1ccc(N2CCN(C3CCCN(Cc4ccc(F)cc4Cl)C3)CC2)cc1 (stereo not drawn),"inconclusive: 18.5 µM [inhibitor, single point]"
14,CCC1=C(c2cc(OC)c(OC)c(OC)c2)C2(CCCC2)C(=O)O1,"inconclusive: 18.5 µM [inhibitor, single point]"
15,CCC(C)(C(=O)NC1CCCCC1)N(C(=O)CC1NC(=O)NC1=O)c1c(C)n(C)n(-c2ccccc2)c1=O (stereo not drawn),inactive
16,COC(=O)Cc1c(C)c2ccc(OCC(=O)N(C)C3CCS(=O)(=O)C3)cc2oc1=O (stereo not drawn),inactive
17,Cc1ccc(NC(=O)COC(=O)c2ccc(OCc3c(C)noc3C)cc2)cc1S(=O)(=O)N1CCOCC1,"inconclusive: 18.5 µM [inhibitor, single point]"
18,CN1C2CCC1CC(OC(=O)c1cc(Cl)cc(Cl)c1)C2 (stereo not drawn),inactive
19,COc1ccc(-c2cc(C(=O)N3CCc4ccccc4C3)no2)cc1,"inconclusive: 13.1 µM [inhibitor, single point]"
20,CCC(C)NC(=O)c1c(C)cc(=O)oc1C (stereo not drawn),"inconclusive: 3.29 µM [inhibitor, partial curve, poor fit]"
21,CCc1ccc(S(=O)(=O)/N=C2\C=CC(=O)c3ccccc32)cc1,"inconclusive: 2.33 µM [inhibitor, full curve, poor fit]"
22,O=C(Nc1ccc(Cl)c(Cl)c1)C1CC1,"inconclusive: 2.39 µM [inhibitor, partial curve, poor fit]"
23,COc1ccc(N(CC(=O)NCCSc2ccccn2)S(=O)(=O)c2ccc(C)cc2)cc1OC,"inconclusive: 0.415 µM [inhibitor, full curve, poor fit]"

# Another view of part of the listing above.
row | SMILES | Potency
3 | O=C(NCCCN1CCN(Cc2ccccc2)CC1)C1CCN(S(=O)(=O)N2CCC3(CC2)OCCO3)CC1 | inconclusive: 16.5 µM [inhibitor, partial curve, poor fit]
4 | CCC1COC(c2cccn2Cc2ccc(Cl)cc2)=N1 (stereo not drawn) | inconclusive: 18.5 µM [inhibitor, single point]
5 | Cc1cc2nc3c(=O)[nH]c(=O)[nH]c3nc2c([N+](=O)[O-])c1N | inactive
6 | CCC(C)(C)NC(=O)C(OC(=O)c1ccco1)c1ccccc1F (stereo not drawn) | inconclusive: 8.28 µM [inhibitor, partial curve, poor fit]
7 | COCCN1CC(=O)N2C(c3cccc(OC)c3)c3[nH]c4ccccc4c3C[C@H]2C1=O (stereo partly drawn) | inconclusive: 0.928 µM [inhibitor, full curve]

# More compounds:

row,SMILES,Potency
1,N#CC(Sc1ccccn1)c1ccc(Cl)cc1Cl (stereo not drawn),"inconclusive: 8.28 µM [inhibitor, partial curve, poor fit]"
2,CCOc1ccc(C2CC(c3ccc(F)cc3)n3ncnc3N2)cc1 (stereo not drawn),"inconclusive: 18.5 µM [inhibitor, single point]"
3,Cc1sc2ncn(CC(=O)NCCCC(=O)N3CCN(Cc4ccc5c(c4)OCO5)CC3)c(=O)c2c1C,"inconclusive: 6.57 µM [inhibitor, partial curve]"
4,O=C(/C=C/c1ccc2ccccc2n1)c1cc(Br)ccc1O,"inconclusive: 13.1 µM [inhibitor, partial curve, poor fit]"
5,CCN1CCN(c2cc(C)c3cc(NC(=O)c4ccc(Br)o4)ccc3n2)CC1,inactive
6,COc1cccc(NC(=O)CSc2nnc(Cc3cccs3)n2-c2ccc(C)cc2)c1,"inconclusive: 8.28 µM [inhibitor, partial curve, poor fit]"
7,CC1(c2cccc(Br)c2)NC(=O)N(CC(=O)NC2CCCCC2)C1=O (stereo not drawn),"inconclusive: 18.5 µM [inhibitor, single point]"
8,Nc1ccc(Sc2ccc([N+](=O)[O-])cc2)cc1,active: 11.7 µM
9,CC(C)(C)c1cc(NC(=O)c2cccc([N+](=O)[O-])c2)no1,inactive
10,CCN1CCN(CC(=O)N2CCCC(C(=O)c3ccc(Oc4ccccc4)cc3)C2)CC1 (stereo not drawn),"inconclusive: 10.4 µM [inhibitor, single point]"
11,O=C(Cn1c(=S)[nH]c2ccccc2c1=O)N1CCN(c2ccccc2)CC1,"inconclusive: 10.4 µM [inhibitor, single point]"
12,O=C(O)CS(=O)(=O)c1ccc(C(F)(F)F)cn1,"inconclusive: 1.04 µM [inhibitor, partial curve, poor fit]"
13,CCCn1nc(C(=O)NNC(=O)Cc2ccc(S(=O)(=O)N3CCOCC3)s2)c2ccccc2c1=O,"inconclusive: 10.4 µM [inhibitor, single point]"
14,O=C1C2CCCN2C(=O)N1CCCN1CCN(c2cccc(Br)c2)CC1 (stereo not drawn),"inconclusive: 10.4 µM [inhibitor, single point]"
15,Cc1cccc(NC(=O)C2CCCN(S(=O)(=O)c3ccc4[nH]c(=O)ccc4c3)C2)n1 (stereo not drawn),"inconclusive: 0.0147 µM [inhibitor, full curve]"
16,COc1ccc2c(CC(=O)Nc3ccc(OC)nc3)coc2c1,inactive
17,N#Cc1c(SCC(=O)Nc2ccccc2C(F)(F)F)sc2c(O)cc(=O)[nH]c12,"inconclusive: 16.5 µM [inhibitor, single point]"
18,Fc1ccc(C2=CCN(C(c3ccc(Cl)cc3)c3nnnn3Cc3ccccc3)CC2)cc1 (stereo not drawn),inactive
19,CCOC(=O)C1=C(C)Nc2nc(=S)[nH]n2C1c1ccc(Cl)cc1 (stereo not drawn),inactive
20,Cc1cccc(CCNS(=O)(=O)c2ccc3c(c2)CCN3C(=O)CCC(=O)O)c1,"inconclusive: 14.7 µM [inhibitor, single point]"
21,Cc1ccc(C(=O)O)cc1[N+](=O)[O-],inactive
22,CCCC1(c2ccccc2)NC(=O)N(CC(=O)NCc2ccc(OC)cc2)C1=O (stereo not drawn),"inconclusive: 5.86 µM [inhibitor, partial curve, poor fit]"
